The results in this text go back to PMC5381120.

No constants are given. Whether binding was seen depends on the method and setting. Binding seen in cells or lysates may run through a third protein. Some results given as binding are weak or reduced against the parent protein; the word gives no strength.

The test addresses T1, FBXL2 (mouse (endogenous in RAW 264.7)) (UniProt Q8BH16).
T1 sequence: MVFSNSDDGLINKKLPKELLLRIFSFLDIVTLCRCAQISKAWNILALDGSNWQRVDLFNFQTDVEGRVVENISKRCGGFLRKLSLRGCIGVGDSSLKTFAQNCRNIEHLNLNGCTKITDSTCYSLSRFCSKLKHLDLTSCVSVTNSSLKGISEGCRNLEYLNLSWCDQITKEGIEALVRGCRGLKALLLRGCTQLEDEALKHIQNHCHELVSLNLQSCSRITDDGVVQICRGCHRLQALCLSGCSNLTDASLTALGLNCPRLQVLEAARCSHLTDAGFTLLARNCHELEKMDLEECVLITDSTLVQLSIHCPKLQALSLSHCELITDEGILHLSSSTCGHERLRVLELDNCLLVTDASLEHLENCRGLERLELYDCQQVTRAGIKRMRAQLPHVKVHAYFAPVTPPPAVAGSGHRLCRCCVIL
In words: co-IP; FBXL2 antibody and protein A/G beads added to 1 mg RAW 264.7 cell lysate, 6 h, washed 5 times, blotted with anti-FBXL2 and anti-TRAF6; cells of the control, polyethylene debris and LIPUS+debris groups.

B1: TRAF6 (protein, UniProt P70196 1-530)
chain: MSLLNCENSCGSSQSSSDCCAAMAASCSAAVKDDSVSGSASTGNLSSSFMEEIQGYDVEFDPPLESKYECPICLMALREAVQTPCGHRFCKACIIKSIRDAGHKCPVDNEILLENQLFPDNFAKREILSLTVKCPNKGCLQKMELRHLEDHQVHCEFALVNCPQCQRPFQKCQVNTHIIEDCPRRQVSCVNCAVSMAYEEKEIHDQSCPLANIICEYCGTILIREQMPNHYDLDCPTAPIPCTFSVFGCHEKMQRNHLARHLQENTQLHMRLLAQAVHNVNLALRPCDAASPSRGCRPEDPNYEETIKQLESRLVRQDHQIRELTAKMETQSMYVGELKRTIRTLEDKVAEMEAQQCNGIYIWKIGNFGMHLKSQEEERPVVIHSPGFYTGRPGYKLCMRLHLQLPTAQRCANYISLFVHTMQGEYDSHLPWPFQGTIRLTILDQSEALIRQNHEEVMDAKPELLAFQRPTIPRNPKGFGYVTFMHLEALRQGTFIKDDTLLVRCEVSTRFDMGGLRKEGFQPRSTDAGV
Take B1: the binding entry is given as “binds”.
